The target in test [1] is Strep-HA-tagged DDX39B (human) (UniProt Q13838). Briefly: co-IP.
For test [2], the target named is Strep-HA-tagged TMPRSS2 (human) (UniProt O15393). Briefly: co-IP.

By UniProt entry, the sequences of proteins in these tests, tags left out.
UniProt Q13838: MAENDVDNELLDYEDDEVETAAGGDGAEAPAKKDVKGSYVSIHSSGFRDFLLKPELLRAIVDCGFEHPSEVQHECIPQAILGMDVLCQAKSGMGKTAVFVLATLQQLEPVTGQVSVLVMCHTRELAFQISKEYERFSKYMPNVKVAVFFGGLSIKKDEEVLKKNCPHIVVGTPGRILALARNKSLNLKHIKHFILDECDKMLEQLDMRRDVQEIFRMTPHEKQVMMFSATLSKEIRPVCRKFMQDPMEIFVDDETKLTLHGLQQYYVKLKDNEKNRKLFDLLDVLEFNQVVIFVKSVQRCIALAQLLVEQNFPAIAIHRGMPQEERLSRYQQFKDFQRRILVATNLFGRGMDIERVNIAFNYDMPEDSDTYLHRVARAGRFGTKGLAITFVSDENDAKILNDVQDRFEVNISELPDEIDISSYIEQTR
UniProt O15393: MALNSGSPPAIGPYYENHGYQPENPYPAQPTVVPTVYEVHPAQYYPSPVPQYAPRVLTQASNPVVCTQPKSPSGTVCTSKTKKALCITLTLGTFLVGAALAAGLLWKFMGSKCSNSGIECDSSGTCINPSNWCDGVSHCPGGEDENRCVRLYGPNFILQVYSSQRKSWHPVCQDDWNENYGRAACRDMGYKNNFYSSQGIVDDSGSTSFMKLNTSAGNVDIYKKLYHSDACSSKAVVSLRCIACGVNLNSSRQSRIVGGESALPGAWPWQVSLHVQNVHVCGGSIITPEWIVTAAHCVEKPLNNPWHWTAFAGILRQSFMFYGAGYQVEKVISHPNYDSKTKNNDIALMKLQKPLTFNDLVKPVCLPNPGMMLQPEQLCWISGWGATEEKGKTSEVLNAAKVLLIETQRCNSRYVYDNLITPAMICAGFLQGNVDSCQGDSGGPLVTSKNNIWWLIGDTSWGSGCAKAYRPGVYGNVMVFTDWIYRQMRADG

No constants are given. Whether binding was seen depends on the method and setting. Binding seen in cells or lysates may run through a third protein. Some results given as binding are weak or reduced against the parent protein; the word gives no strength. For part of these data: Sequences can lack the tags named with a protein.

For the molecule “V5-tagged TMPRSS2 (from UniProt O15393 1-492) (enzyme)”, in test [1], the binding entry is given as “binds”.

As to “V5-tagged DDX39B (from UniProt Q13838 1-428) (enzyme)”, the binding entry in test [2] is recorded as “binds”.

B1: V5-tagged TOP3B (enzyme, UniProt O95985 1-862)
chain: MKTVLMVAEKPSLAQSIAKILSRGSLSSHKGLNGACSVHEYTGTFAGQPVRFKMTSVCGHVMTLDFLGKYNKWDKVDPAELFSQAPTEKKEANPKLNMVKFLQVEGRGCDYIVLWLDCDKEGENICFEVLDAVLPVMNKAHGGEKTVFRARFSSITDTDICNAMACLGEPDHNEALSVDARQELDLRIGCAFTRFQTKYFQGKYGDLDSSLISFGPCQTPTLGFCVERHDKIQSFKPETYWVLQAKVNTDKDRSLLLDWDRVRVFDREIAQMFLNMTKLEKEAQVEATSRKEKAKQRPLALNTVEMLRVASSSLGMGPQHAMQTAERLYTQGYISYPRTETTHYPENFDLKGSLRQQANHPYWADTVKRLLAEGINRPRKGHDAGDHPPITPMKSATEAELGGDAWRLYEYITRHFIATVSHDCKYLQSTISFRIGPELFTCSGKTVLSPGFTEVMPWQSVPLEESLPTCQRGDAFPVGEVKMLEKQTNPPDYLTEAELITLMEKHGIGTDASIPVHINNICQRNYVTVESGRRLKPTNLGIVLVHGYYKIDAELVLPTIRSAVEKQLNLIAQGKADYRQVLGHTLDVFKRKFHYFVDSIAGMDELMEVSFSPLAATGKPLSRCGKCHRFMKYIQAKPSRLHCSHCDETYTLPQNGTIKLYKELRCPLDDFELVLWSSGSRGKSYPLCPYCYNHPPFRDMKKGMGCNECTHPSCQHSLSMLGIGQCVECESGVLVLDPTSGPKWKVACNKCNVVAHCFENAHRVRVSADTCSVCEAALLDVDFNKAKSPLPGDETQHMGCVFCDPVFQELVELKHAASCHPMHRGGPGRRQGRGRGRARRPPGKPNPRRPKDKMSALAAYFV
On to B1, for which the binding entry in test [1] is recorded as “binds”.

Source of the values: PMC8552907.
